Measurements as given in paper PMC12670160, “A drug-repurposing screen of FDA- and EMA-approved drugs identifies two NF-κB inhibitors active against eumycetoma” (Journal of Antimicrobial Chemotherapy, 2025).
Most of the strong results are listed elsewhere, so they are rarer here than in the full data.

system: M. mycetomatis strain mm55; conditions: m. mycetomatis hyphae, 96 h, 2 µM

| Compound | % viability [%] |
| --- | --- |
| CN1C(=O)CN=C(c2ccccc2)c2cc(Cl)ccc21 [ONC0003532, diazepam] | 117.1 |
